Measured values taken from PubChem BioAssay AID2685 (National Center for Advancing Translational Sciences (NCATS), 2010).
The whole screen tested about 320,000 compounds, of which about 2,100 (0.66%) were called active. Inconclusive means that the source gave no clear call. Such entries were picked first, then a sample of the others. Calls come from the whole dose curve; as a rule, active = well fitted inhibition curve with a large enough effect in the signal ratio, with a control signal flat (not every such curve was filed as active); inconclusive = small, poorly fitted or top-dose-only effect, or effect the other way, or a change in a side signal; inactive = flat fitted curve, though single readings scatter; the % refers to the signal ratio. Where the call is inconclusive, the potency comes from a doubtful curve fit.

Assay: qHTS Assay for Lipid Storage Modulators in Drosophila S3 Cells
Settings: BODIPY lipid droplet fluorescence, 18-24 h, cells fed with added oleic acid; lipid storage change, negative = inhibition: at 46.1 µM (top of the series) unless noted
Outline: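 Drosophila S3 cells loaded with oleic acid (400 uM, as added) and compounds at several concentrations; lipid droplets imaged by 488-nm laser-scanning cytometry, 500–530 nm intensity and object ratio to cell channel. Percent activity normalized to 20 uM Triacsin C.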
% is set by controls: 0 for no effect and ±100 for the full control effect; potency is the fitted concentration of half-maximal effect.

SMILES	lipid storage change, negative = inhibition	Potency
CCC1(CC)NC(=O)N(CC(=O)OC(C)C(=O)Nc2ccc(NC(C)=O)cc2)C1=O (centres undefined)	inconclusive: 15.7%	
Cc1ccccc1Nc1cc(=O)oc2ccccc12		inconclusive: 0.058 µM [falling, full curve, poor fit]
Cc1cccc(C)c1NC(=O)Cn1nnnc1N	inconclusive: -23.3%	
O=C(Nc1cc(S(=O)(=O)N2CCOCC2)ccc1O)c1ccco1	inactive: -7.19%	
COc1ccc(C(=O)N/N=C/c2ccc(N3CCOCC3)o2)cc1OC	inconclusive: -3.36%	
CCOC(=O)CCCNC(=O)COC(=O)CCC(=O)c1ccc(F)cc1	inconclusive: -34.6%	
Cn1cnnc1SCC(=O)Nc1cc(C(F)(F)F)ccc1N1CCOCC1	inconclusive: 46.8%	
COc1ccc(N(C)C(=S)Nc2ccc3nc(C)c(C)nc3c2)cc1	inconclusive: 8.9%	
CSC(=S)N/N=C/c1c[nH]c2ccccc12	inconclusive: -23.4%	
N#CCSc1ccccc1NC(=O)CN1C(=O)C2CC=CCC2C1=O (centres undefined)	inconclusive	
COc1cc(CN2CCCCCC2)cc(OC)c1O		inconclusive: 29.1 µM [activator, single point]
CCCn1c(N)c(C(=O)CN(C)CC(=O)Nc2ccccc2C(F)(F)F)c(=O)[nH]c1=O		active: 7.31 µM
COc1cc2cc(C(=O)O)[nH]c2c(OC)c1OC	inconclusive: -8.83%	
COc1ccc(CNC(=O)C2CCCN(S(=O)(=O)c3cnc[nH]3)C2)cc1 (centres undefined)		active: 8.2 µM
COc1ccc(C2=NN(C(=O)c3cccnc3)C(c3ccccc3)C2)cc1 (centres undefined)	inconclusive: 2.63%	
Cc1ccc(S(=O)(=O)n2c3ccc(Cl)cc3c3nc(C)sc32)cc1	inconclusive: -9.2%	
FC(F)(F)c1nnc2n1N=C(c1cccs1)CS2	inconclusive: -22.2%	
CC1(C2CC2)NC(=O)N(CC(=O)NCc2ccc(Cl)cc2Cl)C1=O (centres undefined)	inconclusive: -80.5%	
COc1cc(OC)c(N(C)S(=O)(=O)c2cccc(C(=O)Nc3nnc(C4CC4)s3)c2)cc1Cl	inconclusive: -11.2%	
CN(Cc1ccccc1)S(=O)(=O)c1ccc(N2CCCC2=O)cc1	inconclusive: -100%	
COc1ccc(NC(=O)C2=C(C)Nc3nc(CCCO)nn3C2c2ccc(OC)c(OC)c2)cc1 (centres undefined)	inconclusive: 6.53%	
COc1cc(C(=O)OCC(=O)c2cc(C)n(C)c2C)cc(NC(=O)c2ccco2)c1OC		inconclusive: 0.291 µM [activator, full curve]
CCc1ccc(N2CSC3=C(C#N)C(c4cccs4)CC(=O)N3C2)cc1 (centres undefined)		inconclusive: 4.11 µM [activator, full curve, poor fit]
CCOC(=O)C1=C(C)NC(C)=C(C(=O)OCC)C1C(=O)OCC(=O)NC(C)c1ccccc1 (centres undefined)		inconclusive: 2.59 µM [falling, full curve, poor fit]
CCCn1cc([C@@H]2C[C@H]3CN(Cc4cccc(Cl)c4)C(=O)[C@]34CCCN24)c(C)n1	inconclusive: 0.0762%	

Copied from the list:
`COc1ccc(CNC(=O)C2CCCN(S(=O)(=O)c3cnc[nH]3)C2)cc1` (centres undefined) – Potency: active: 8.2 µM
`CCOC(=O)CCCNC(=O)COC(=O)CCC(=O)c1ccc(F)cc1` – lipid storage change, negative = inhibition: inconclusive: -34.6%
`COc1ccc(NC(=O)C2=C(C)Nc3nc(CCCO)nn3C2c2ccc(OC)c(OC)c2)cc1` (centres undefined) – lipid storage change, negative = inhibition: inconclusive: 6.53%

(list continues)

SMILES	lipid storage change, negative = inhibition	Potency
COc1ccc2c(c1)O[C@H](c1ccc3c(c1)OCO3)[C@@H](O)C2=O		inconclusive: 2.59 µM [activator, partial curve]
CO/N=C\CC(=O)Nc1ccc(Cl)c(Cl)c1		inconclusive: 0.13 µM [cytotoxic, full curve, poor fit]
CCn1c(SCc2nc3ccccc3[nH]2)nnc1-c1ccncc1	inconclusive: 8.44%	
COCc1cc(=O)[nH]c2cc(NC(=O)C3CC3)c(C)cc12		inconclusive: 4.11 µM [rising, single point]
COc1cccc2cc(C(=O)C3=C(O)C(=O)N(CCCN(C)C)C3c3ccncc3)oc12 (centres undefined)	inconclusive: -4.2%	
Cc1cc(SCC(=O)NN=C2CCN(C(C)C)CC2)c(C)cc1Br	inconclusive: 20%	
CN(C)CC(C)(C)CNS(=O)(=O)c1cccc2nsnc12	inconclusive: 0.277%	
COc1ccc(C(=O)CN2CCN(c3ncccn3)CC2)cc1		inconclusive: 25.9 µM [falling, single point]
O=C(Cn1ncn2c(cc3ccccc32)c1=O)NCCc1cccs1		inconclusive: 23.1 µM [activator, partial curve, poor fit]
Cc1noc(C)c1COc1ccc(C(=O)N2CCCC(C(N)=O)C2)cc1 (centres undefined)	inconclusive: 7.76%	
O=C(NCC(=O)N(c1ccccc1)C(C(=O)NC1CCCC1)c1ccncc1)c1cccs1 (centres undefined)	inconclusive: 45.5%	
O=C(COC(=O)CSCC(=O)N1CCCCC1)NCc1ccc(F)cc1		inconclusive: 0.92 µM [falling, single point]
O=C(CCN1CCN(Cc2ccccc2)CC1)Nc1ccc(OCc2ccccc2)cc1		inconclusive: 0.731 µM [falling, full curve, poor fit]
CNc1nc2ccccc2n1CC(=O)c1ccccc1	inconclusive: 147%	
Cn1cc(Br)c(C(=O)Nc2sc3c(c2C(N)=O)CCCC3)n1		inconclusive: 6.51 µM [activator, partial curve, poor fit]
CCCCCCn1nc(C(=O)OCC(=O)c2c(N)n(C)c(=O)n(C)c2=O)c2ccccc2c1=O	inconclusive: -17.9%	
O=C(Cc1noc2ccccc12)Nc1ccc(Cl)cc1	inconclusive: 10.8%	
O=C(O)COc1ccc(S(=O)(=O)NCCc2ccccc2)cc1		inconclusive: 6.51 µM [falling, single point]
Cc1cccc(C)c1NC(=O)CNC(=O)c1cncc(Br)c1	inconclusive: 110%	
CCN1CCC2(CC1)C(C#N)=C(N)Oc1c2sc2nc(C)cc(C)c12		inconclusive: 0.517 µM [activator, full curve]
Cc1cccc(C(=O)OCC(=O)N(C)CC(=O)Nc2ccc(Cl)c(C(F)(F)F)c2)c1	inconclusive: 24.5%	
CCn1ccnc1CN(C)C(=O)CC1C(=O)NCCN1Cc1c(F)cccc1Cl (centres undefined)	inconclusive: -23.8%	
Cc1cc(-c2c(C)[nH]n(-c3ccc(Cl)cc3)c2=O)n(-c2ccccc2)n1	inconclusive: -27.1%	
CCN(CC)CCN1C(=O)C(=O)/C(=C(/O)c2ccc(C)cc2)C1c1ccncc1 (centres undefined)	inconclusive: -42.2%	
